{"source": "patent US20190105344A1", "about": "“ORAL MOLECULAR IODINE COMPOSITION AND METHOD” (Iogen, LLC, priority 2016, published 2019)", "experiment": "Iodination of arachidonic acid by molecular iodine (thiosulfate titration, Example 1)", "type": "physicochemical", "conditions": "1 mL iodate/iodide solution, 2 mL 1N HCl", "protocol": "A stock solution of 10 mg/ml arachidonic acid in ethanol was prepared. […] A control vial was prepared that had no arachidonic acid.\nAn iodate/iodide solution was prepared separately by adding NaIO3 (Sigma-Aldrich, St. Louis, Mo.; part number S4007-500G) and NaI (Sigma-Aldrich, St. Louis, Mo.; part number […]) to final concentrations of 3.16 and 20.55 mM, respectively, in 0.64M sodium carbonate in water.\nVials were then titrated with 0.01N sodium thiosulfate solution until the samples went from dark blue to colorless.\nSince the oxidation of iodide after acidification is diffusion controlled, the reaction of iodate with iodide is essentially instantaneous and five moles of iodide reacts with each mole of iodate to form 3 moles of molecular iodine.\nThe ratio of iodide to iodate used in this experiment insured that there was unreacted […] present in the solution after acidification with HCl.", "data": [{"smiles": "CCCCC/C=C\\C/C=C\\C/C=C\\C/C=C\\CCCC(=O)O", "note": "[Arachidonic Acid, (5Z,8Z,11Z,14Z)-5,8,11,14-eicosatetraenoic acid]", "values": [{"measurement": "Visual Observation", "setting": "0.3 mg arachidonic acid", "result": "Solution"}, {"measurement": "Visual Observation", "setting": "1.0 mg arachidonic acid", "result": "Solution"}]}]}
